System: primary cortical neuron cells
Test: Toxicity of human Aβ1-42 peptide on primary cortical neuron cells (MAP2 antibody labelling)
Type: cell-based, rat
Conditions: combinations versus drugs used alone at the same doses
Method: Effect on the Toxicity of Human Aβ1-42 Peptide on Primary Cortical Neuron Cells.
Culture of Primary Cortical Neurons
Rat cortical neurons are cultured as described by Singer et al.. Briefly pregnant female rats of 15 days gestation were killed by cervical dislocation (Rats Wistar) and the foetuses were removed from the uterus. The cortex was removed and placed in ice-cold medium of Leibovitz (L15) containing 2% of Penicillin 10.000 U/ml and Streptomycin 10 mg/ml and 1% of bovine serum albumin (BSA). Cortices were dissociated by trypsin for 20 min at 37° C. (0.05%). The reaction was stopped by the addition of Dulbecco's modified Eagle's medium (DMEM) containing DNase 1 grade II and 10% of fetal calf serum (FCS). Cells were then mechanically dissociated by 3 serial passages through a 10 ml pipette and centrifuged at 515×g for […] at +4° C. The supernatant was discarded and the pellet of cells was re-suspended in a defined culture medium consisting of Neurobasal supplemented with B27 (2%), L-glutamine (0.2 mM), 2% of PS solution and 10 ng/ml of BDNF. Viable cells are counted in a Neubauer cytometer using the trypan blue exclusion test. […]
Data are expressed in percentage of control conditions (no intoxication, no amyloid=100%) in order to express the amyloid injury. All values are expressed as mean+/−SEM (s.e.mean) of the 3 cultures (n=6 wells per condition). […]

## COc1cc2c(cc1OC)C(=O)C(CC1CCN(Cc3ccccc3)CC1)C2 (stereo not shown) [donepezil]
  protective effect on neuronal cells against Aβ1-42 toxicity: no or a marginal protective effect

Source: patent publication US10799499B2, “Combinatorial therapies of neurological disorders” (PHARNEXT, priority 2016, dated 2020)
